Measured values taken from PubChem BioAssay (Tox21).
Inconclusive results, whose numbers are uncertain, are shown with a selection of clear calls. Potencies beside an inconclusive call are fits to weak or partial responses and may not hold up. Some compounds were tested as several samples or in several runs, with calls that do not always agree. Active and inactive are the calls of the source. Calls follow the shape of the full dose curve.
% is scaled to controls: 0 for no effect and ±100 for the full control effect; potency is read from the fitted curve at half-maximal effect.

Amino acid sequences for entries named in this document (tags omitted). A change or cut given only in a name is not applied to a line headed by its entry.
UniProt P19793: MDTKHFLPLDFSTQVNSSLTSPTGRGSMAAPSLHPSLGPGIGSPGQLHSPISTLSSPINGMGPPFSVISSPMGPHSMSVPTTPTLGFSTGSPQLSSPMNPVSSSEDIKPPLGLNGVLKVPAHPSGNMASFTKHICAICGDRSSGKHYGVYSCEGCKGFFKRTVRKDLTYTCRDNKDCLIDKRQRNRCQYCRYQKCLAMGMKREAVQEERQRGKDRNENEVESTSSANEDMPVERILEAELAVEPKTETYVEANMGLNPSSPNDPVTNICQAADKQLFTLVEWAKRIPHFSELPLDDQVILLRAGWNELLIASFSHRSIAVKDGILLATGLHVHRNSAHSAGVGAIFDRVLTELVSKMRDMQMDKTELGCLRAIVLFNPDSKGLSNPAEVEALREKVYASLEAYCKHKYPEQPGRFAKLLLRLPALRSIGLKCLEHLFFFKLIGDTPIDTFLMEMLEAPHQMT

The compounds below were run against Retinoic acid receptor RXR-alpha (Homo sapiens) (UniProt P19793) (assay: qHTS assay to identify small molecule agonists of the RXR signaling pathway (AID 1159527; also: nearly all actives have a fitted effect of over 35% in size)). Conditions: HEK293T RXRa-UAS-bla, beta-lactamase ratio, 16 h; activation: at 76.8 µM (top of the series) unless noted.
Method in brief: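 Read-out: beta-lactamase FRET ratio (405 nm excitation, 460 and 530 nm emission) after 2 hr substrate loading at room temperature. Cells were RXR-alpha-UAS-bla HEK 293T treated with compounds for 16 hr in 2% charcoal-stripped FBS medium.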
In the case of `CCCCCCC(C)O` (stereo not drawn), the Potency was active: 17.7 µM.
For `CC(=O)Oc1ccc(C(c2ccc(OC(C)=O)cc2)c2ccccn2)cc1`, the Potency was inconclusive: 24.4 µM [rising, partial curve].
For `CCO[Si](C)(OCC)OCC`, the activation was inconclusive: 6.05%.
In the case of `COC1=C(OC)C(=O)C(CCCCCCCCCCO)=C(C)C1=O`, the Potency was inconclusive: 4.77 µM [inhibitor].
For `CCCCc1nc2cccnc2n1Cc1ccc(-c2ccccc2-c2nnn[nH]2)cc1`, the activation was inconclusive: 1.87%.
`CCCC(=O)OC(C)(C)Cc1ccccc1` was tested, and the “activation” value was inactive: -0.459%.
In the case of `C=CC(=C)CCC=C(C)C`, the Potency was inconclusive: 54.9 µM [fluorescent].
`NC1CCCCC1N` (stereo not drawn) was tested, and the Potency was “inactive”.
For `CC(C)CCCCCOC(=O)CCS`, the activation was inconclusive: -5.02%.
`Cc1cc(N)c2cc(NC(=O)Nc3ccc4nc(C)cc(N)c4c3)ccc2n1` was tested, and the activation was inconclusive: 9.02% [at 35.3 µM].
`CCCCC(=O)O[C@]1(C(=O)CO)[C@H](C)C[C@H]2[C@@H]3CCC4=CC(=O)C=C[C@]4(C)[C@@]3(F)[C@@H](O)C[C@@]21C` was tested, and the “activation” value was inactive: 4.68% [at 35.3 µM].
`O=C(C(=O)c1ccccc1)c1ccccc1` was tested, and the “activation” value was inactive: -11%.
For `OC[C@H]1O[C@@H](O[C@@H]2[C@@H](CO)O[C@](O)(CO)[C@H]2O)[C@H](O)[C@@H](O)[C@H]1O`, the “activation” value was inactive: -6.79% [at 35.3 µM].
In the case of `C=CC(C)(CCC=C(C)C)OC(=O)c1ccccc1` (stereo not drawn), the activation was inconclusive: -21.8%.
`CCc1cc(C(N)=S)ccn1` was tested, and the Potency was “inactive”.
With `CCC(C)C1N=C(C)C(C)S1` (stereo not drawn) the activation was inconclusive: -23.7%.
With `CC(C)NCC(O)c1ccc(NS(C)(=O)=O)cc1` (stereo not drawn) the “activation” value was inactive: 4.09%.
In the case of `CO[Si](CCCNc1ccccc1)(OC)OC`, the “activation” value was inactive: -6.15%.
With `Cc1ccc2ccccc2n1` the “activation” value was inactive: 4.15%.
`COc1ccc2c(c1)c(CC(=O)OC/C=C(\C)CC/C=C(\C)CCC=C(C)C)c(C)n2C(=O)c1ccc(Cl)cc1` was tested, and the activation was inconclusive: -25% [at 35.3 µM].
With `O=C(O)Cc1ccc(-c2ccccc2)cc1` the Potency was inconclusive: 23.9 µM [fluorescent, single point].
For `CC(C)(C)CC(C)(C)N`, the Potency was active: 2.12 µM.
In the case of `Cc1cc(=O)oc2cc(N(C)C)ccc12`, the Potency was inconclusive: 43.6 µM [fluorescent, partial curve].
